Here are results for 1 substance from patent publication US20160097036A1.

Sequences of proteins named here, by UniProt entry; tags and fusion partners are left off.
UniProt Q01860: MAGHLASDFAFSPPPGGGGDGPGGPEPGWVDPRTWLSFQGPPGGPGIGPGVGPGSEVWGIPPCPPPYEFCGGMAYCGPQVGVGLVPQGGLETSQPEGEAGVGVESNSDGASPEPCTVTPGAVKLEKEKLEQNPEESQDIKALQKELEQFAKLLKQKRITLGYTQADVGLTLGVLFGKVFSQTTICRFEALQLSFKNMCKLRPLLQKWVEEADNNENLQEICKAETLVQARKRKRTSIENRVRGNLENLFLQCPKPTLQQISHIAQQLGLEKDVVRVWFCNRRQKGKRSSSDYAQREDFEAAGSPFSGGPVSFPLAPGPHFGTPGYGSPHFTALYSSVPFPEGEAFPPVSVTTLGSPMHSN
UniProt Q9H9S0: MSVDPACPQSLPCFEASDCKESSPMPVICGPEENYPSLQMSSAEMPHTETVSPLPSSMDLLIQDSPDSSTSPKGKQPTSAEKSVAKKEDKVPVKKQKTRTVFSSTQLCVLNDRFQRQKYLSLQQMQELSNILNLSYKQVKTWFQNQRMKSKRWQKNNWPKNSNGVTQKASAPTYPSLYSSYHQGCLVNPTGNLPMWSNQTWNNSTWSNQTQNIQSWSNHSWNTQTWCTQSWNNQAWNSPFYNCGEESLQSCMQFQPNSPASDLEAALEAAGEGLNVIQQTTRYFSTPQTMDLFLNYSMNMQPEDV

Test [1] has as its target OCT4 (human) (UniProt Q01860). Description: co-immunoprecipitation: IP with NANOG pAb from lysates of VPA-expanded cells and ES cells, Western blot with OCT4 pAb. (In western blotting, separated proteins are transferred to a membrane and probed.)
Test [2] concerns the target OCT4 (human) (UniProt Q01860). Description: co-immunoprecipitation: IP with NANOG pAb from lysate of VPA-treated CD34+ cells, Western blot with OCT4 pAb.

Results are given in words; binding and its absence hold for the method and conditions named. In cells and extracts the contact can be indirect. Some results given as binding are weak or reduced against the parent protein; the word gives no strength.

For NANOG (from UniProt Q9H9S0 1-305), the binding entry with OCT4 (human) [1] and with OCT4 (human) [2] was “binds” throughout.
